Results deposited as PubChem BioAssay AID743454 (Peter MacCallum Cancer Centre, 2014).

Test: 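Knock-downs lowering viability or raising caspase 3/7 activity in vorinostat-treated resistant cells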 (primary screen)
Cell system: human HCT116-VR colon cancer cells, selected for vorinostat resistance
Knock-down reagent: siRNA pool against human genes, 40 nM siRNA pool
Time to read-out: vorinostat for 24 h, read-out about 72 h after transfection
Treatment: vorinostat at 2.5 µM final
Detection: 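Cell viability by CellTiter-Fluor and caspase 3/7 activity by luminescence, each scaled to mock wells per plate, duplicates averaged, then robust z-scored over all plates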
Scale: viability robust z-score: higher = more viable cells than screen typical; caspase robust z-score: higher = more caspase 3/7 activity than screen typical
Hit rule: 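a knock-down is a hit when classed RV1 or RV2 for lowered viability, or CA1 or CA2 for caspase activation; those lethal without drug were dropped; hits were retested singly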
Here is an unselected part of about 18,000 reagents tested. Of all reagents, 450 (2.5%) were called active. 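Single biological run; no consistent viability z cut-off exists, so the class columns, not z-scores, define the calls.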 Reagents against one gene are numbered here.

| target gene | pool no. | viability hit class | caspase hit class | viability robust z-score | caspase robust z-score | Outcome |
| --- | --- | --- | --- | --- | --- | --- |
| PVRIG (PVR related immunoglobulin domain containing) | 1 | no change | no change | 1.69 | -0.2 | inactive |
| DPM3 (dolichyl-phosphate mannosyltransferase subunit 3, regulatory) | 1 | no change | no change | -1.21 | 1.34 | inactive |
| ZC3H11A (zinc finger CCCH-type containing 11A) | 1 | no change | no change | -0.32 | 1.86 | inactive |
| UCN2 (urocortin 2) | 1 | no change | no change | -1.01 | 1.02 | inactive |
| DENND1B (DENN domain containing 1B) | 1 | no change | no change | -0.38 | 1.34 | inactive |
| DENND1B (DENN domain containing 1B) | 2 | no change | no change | -0.4 | 1.13 | inactive |
| HACE1 | 1 | no change | no change | -0.15 | 2.19 | inactive |
| ROR1 (ROR family WNT receptor 1) | 1 | no change | no change | -0.52 | 2.13 | inactive |
| FUOM (fucose mutarotase) | 1 | no change | no change | 0.12 | 4.92 | inactive |
| SLC30A5 | 1 | no change | no change | -0.3 | -1.02 | inactive |
| ANPEP (alanyl aminopeptidase, membrane) | 1 | no change | no change | -0.09 | 0.4 | inactive |
| RPLP0 (ribosomal protein lateral stalk subunit P0) | 1 | no change | no change | -4.59 | -1.5 | inactive |
| MAMDC4 (MAM domain containing 4) | 1 | no change | no change | 0.34 | -0.5 | inactive |
| TSEN2 (tRNA splicing endonuclease subunit 2) | 1 | no change | no change | 0.94 | 0.3 | inactive |
| TM2D2 (TM2 domain containing 2) | 1 | no change | no change | -1.12 | -0.77 | inactive |
| MED23 (mediator complex subunit 23) | 1 | no change | no change | 0.12 | -0.92 | inactive |
| CTSK (cathepsin K) | 1 | no change | no change | 0.7 | -0.6 | inactive |
| GRIK5 (glutamate ionotropic receptor kainate type subunit 5) | 1 | no change | no change | -0.88 | 3.54 | inactive |
| GNA15 (G protein subunit alpha 15) | 1 | no change | no change | 0.29 | -0.07 | inactive |
| NYAP1 | 1 | no change | no change | 0.04 | -0.86 | inactive |
| DZIP3 (DAZ interacting zinc finger protein 3) | 1 | no change | no change | -0.89 | 3.31 | inactive |
| FOXO3 (forkhead box O3) | 1 | no change | no change | -0.33 | -0.89 | inactive |
| CHCT1 (CHD1 helical C-terminal domain containing 1) | 1 | no change | no change | -0.05 | -1.31 | inactive |

3 entries already listed, arranged by “viability robust z-score”, descending.
| target gene | pool no. | viability hit class | caspase hit class | viability robust z-score | caspase robust z-score | Outcome |
| --- | --- | --- | --- | --- | --- | --- |
| MAMDC4 (MAM domain containing 4) | 1 | no change | no change | 0.34 | -0.5 | inactive |
| ANPEP (alanyl aminopeptidase, membrane) | 1 | no change | no change | -0.09 | 0.4 | inactive |
| RPLP0 (ribosomal protein lateral stalk subunit P0) | 1 | no change | no change | -4.59 | -1.5 | inactive |
